Substitutions are numbered along the chain they refer to. These are yes or no findings as the source states them, for the method shown. In cells and extracts the contact can be indirect. Some entries that bind do so weakly or less than the wild type. One block for each binder: values may come before it.
Key:
[1] = biological target: T1, cyclin-dependent kinase-like 5 (CDKL5), endogenous in mouse brain (mouse (endogenous in brain)) (UniProt Q3UTQ8); assay: co-IP; CDKL5 immunoprecipitated with 1 µg anti-CDKL5 from 1 mg mouse brain extract (PND20-30); lysis buffer 50 mM Tris-HCl pH 7.4, 150 mM NaCl, 1 mM EDTA, 1 mM EGTA, 1% Triton X-100; overnight at 4 °C; protein-G agarose; unrelated IgGs as control; western blotting
T1 sequence: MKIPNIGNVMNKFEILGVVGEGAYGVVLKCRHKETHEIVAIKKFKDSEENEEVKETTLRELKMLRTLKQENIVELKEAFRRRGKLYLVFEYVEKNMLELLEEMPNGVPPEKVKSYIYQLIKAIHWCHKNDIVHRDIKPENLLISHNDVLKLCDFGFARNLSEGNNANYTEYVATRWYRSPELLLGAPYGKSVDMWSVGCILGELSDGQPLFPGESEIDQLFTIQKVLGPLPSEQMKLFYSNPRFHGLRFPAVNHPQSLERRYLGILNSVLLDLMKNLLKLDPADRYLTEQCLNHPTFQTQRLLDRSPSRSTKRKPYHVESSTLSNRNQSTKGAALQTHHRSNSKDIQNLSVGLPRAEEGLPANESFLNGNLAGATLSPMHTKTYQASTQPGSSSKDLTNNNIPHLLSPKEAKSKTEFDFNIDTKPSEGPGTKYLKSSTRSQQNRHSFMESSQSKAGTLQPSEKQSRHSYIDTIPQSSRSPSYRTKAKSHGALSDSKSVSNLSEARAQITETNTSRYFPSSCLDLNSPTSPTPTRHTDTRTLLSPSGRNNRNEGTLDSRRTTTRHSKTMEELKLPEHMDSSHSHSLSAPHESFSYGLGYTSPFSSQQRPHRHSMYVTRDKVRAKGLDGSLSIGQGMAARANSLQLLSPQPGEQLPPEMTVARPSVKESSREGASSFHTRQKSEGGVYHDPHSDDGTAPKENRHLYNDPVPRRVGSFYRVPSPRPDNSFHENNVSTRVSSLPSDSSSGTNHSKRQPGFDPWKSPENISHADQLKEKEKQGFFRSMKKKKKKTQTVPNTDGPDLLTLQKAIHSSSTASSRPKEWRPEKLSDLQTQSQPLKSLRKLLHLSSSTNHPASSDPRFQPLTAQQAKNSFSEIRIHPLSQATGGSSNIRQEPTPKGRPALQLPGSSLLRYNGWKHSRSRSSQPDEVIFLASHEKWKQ

[2] = biological target: T2, CDKL5, endogenous in HEK293T cells (human (endogenous in HEK293T)) (UniProt O76039); assay: co-IP; CDKL5 immunoprecipitated with 1 µg monoclonal anti-CDKL5 from 400 µg of HEK293T cells expressing Flag-CDKL5 and Myc-CB2; lysis buffer 50 mM Tris-HCl pH 7.4, 150 mM NaCl, 1 mM EDTA, 1 mM EGTA, 1% Triton X-100; overnight at 4 °C; protein-G agarose; western blotting with anti-CDKL5 and anti-CB
T2 sequence: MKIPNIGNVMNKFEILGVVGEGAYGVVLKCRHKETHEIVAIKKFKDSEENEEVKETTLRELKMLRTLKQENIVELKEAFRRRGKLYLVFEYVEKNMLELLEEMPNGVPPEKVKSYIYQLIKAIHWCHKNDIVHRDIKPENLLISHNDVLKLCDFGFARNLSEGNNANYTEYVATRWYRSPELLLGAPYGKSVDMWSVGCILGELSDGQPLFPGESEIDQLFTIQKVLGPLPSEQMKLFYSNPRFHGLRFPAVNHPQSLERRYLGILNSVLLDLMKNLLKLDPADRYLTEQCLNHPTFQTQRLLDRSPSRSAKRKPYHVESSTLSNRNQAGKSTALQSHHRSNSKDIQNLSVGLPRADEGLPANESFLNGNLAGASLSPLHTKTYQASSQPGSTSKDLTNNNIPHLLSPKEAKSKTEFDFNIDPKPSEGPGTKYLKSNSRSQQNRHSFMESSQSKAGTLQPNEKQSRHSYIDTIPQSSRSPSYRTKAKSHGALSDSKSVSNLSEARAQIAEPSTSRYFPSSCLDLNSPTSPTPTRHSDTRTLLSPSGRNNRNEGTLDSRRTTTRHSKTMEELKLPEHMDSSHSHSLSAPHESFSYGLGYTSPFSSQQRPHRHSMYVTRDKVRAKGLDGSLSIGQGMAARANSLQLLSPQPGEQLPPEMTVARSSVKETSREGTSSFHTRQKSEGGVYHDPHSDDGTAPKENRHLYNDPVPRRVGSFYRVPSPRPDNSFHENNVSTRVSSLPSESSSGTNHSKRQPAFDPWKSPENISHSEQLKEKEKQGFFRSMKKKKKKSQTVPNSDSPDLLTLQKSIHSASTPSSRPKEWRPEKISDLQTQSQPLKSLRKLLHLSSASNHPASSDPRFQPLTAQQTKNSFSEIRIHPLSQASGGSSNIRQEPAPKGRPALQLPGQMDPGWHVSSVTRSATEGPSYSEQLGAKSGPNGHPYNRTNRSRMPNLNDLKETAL

binding [1]: binds
B1: collybistin, endogenous in mouse brain (protein, UniProt Q3UTH8 1-516)
chain: MYDLITGDSIVSAEAVWDHVTMANRELAFKAGDVIKVLDASNKDWWWGQIDDEEGWFPASFVRLWVNQEDGVEEGPSDVQNGHLDPNSDCLCLGRPLQNRDQMRANVINEIMSTERHYIKHLKDICEGYLKQCRKRRDMFSDEQLKVIFGNIEDIYRFQMGFVRDLEKQYNNDDPHLSEIGPCFLEHQDGFWIYSEYCNNHLDACMELSKLMKDSRYQHFFEACRLLQQMIDIAIDGFLLTPVQKICKYPLQLAELLKYTAQDHSDYRYVAAALAVMRNVTQQINERKRRLENIDKIAQWQASVLDWEGEDILDRSSELIYTGEMAWIYQPYGRNQQRVFFLFDHQMVLCKKDLIRRDILYYKGRIDMDKYEVIDIEDGRDDDFNVSMKNAFKLHNKETEEVHLFFAKKLEEKIRWLRAFREERKMVQEDEKIGFEISENQKRQAAMTVRKASKQKGVNSARSVPPSYPPPQDPLNQGQYLVPDGIAQSQVFEFTEPKRSQSPFWQNFSRLTPFKK

binding [2]: binds
B2: collybistin, endogenous in HEK293T cells (protein, UniProt O43307 1-516)
chain: B1 chain with Y2T, D3L, G71E, I374V, V402I, A452V, S453P, Q477H

— paper PMC9820583
